# Experimental data from the supplement of paper PMC3334620.
# The full ranking holds about 33,000 sequences; the median of “E-score (-0.5 to 0.5)” is about -0.0034, and the highest 2% start at about 0.25. The list shows a part of the results.
# Target: T1, Yap3 (UniProt P38749)
# T1 sequence: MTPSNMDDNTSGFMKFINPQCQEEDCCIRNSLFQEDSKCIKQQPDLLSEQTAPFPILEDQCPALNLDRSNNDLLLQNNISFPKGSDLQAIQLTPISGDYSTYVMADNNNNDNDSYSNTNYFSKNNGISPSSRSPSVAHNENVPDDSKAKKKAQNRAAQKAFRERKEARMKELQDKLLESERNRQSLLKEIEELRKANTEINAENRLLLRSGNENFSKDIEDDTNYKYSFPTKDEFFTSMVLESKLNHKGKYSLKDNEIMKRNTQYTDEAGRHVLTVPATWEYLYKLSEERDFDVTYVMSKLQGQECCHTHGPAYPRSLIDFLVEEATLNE
# Assay: PBM E-score (8-mer binding enrichment) (E-score (-0.5 to 0.5)); higher = stronger / more preferred TF binding
# Details: protein concentration: 100 nM; construct: GST-full length
# In short: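 E-scores (a modified Wilcoxon-Mann-Whitney statistic) were assigned by the Universal PBM Analysis Suite to every ungapped eight-base word pooled with its reverse complement. The input came from universal all-10-mer Agilent arrays made double-stranded by primer extension and probed with GST-tagged yeast transcription factors at about 100-200 nM. Fluorescent anti-GST detected bound protein, and masliner normalised the scans.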
row,Sequence,PBM E-score
1,GACAATAC,0.237
2,TAAGATGA,0.146
3,ATCCGTAG,-0.164
4,CTGCAATC,0.0425
5,CCTGCGCC,-0.233
6,CCCAGGTC,-0.265
7,ATTCTTAC,0.185
8,ATTAGAGG,-0.164
9,AGTCGTTC,-0.0612
10,AGATGGAT,-0.0578
11,CACCTCGA,0.208
12,ACTCAAAA,0.0867
13,CATCTCTC,0.0553
14,AAAACTCG,0.149
15,TCACTGAA,0.0615
16,ACGCAACG,0.0692
17,CCCCAGAC,-0.236
18,CACCGTAA,0.0946
19,ATATAGAC,0.123
20,CACACGAG,-0.0983
21,ATTTTGTA,0.218
22,AGATTATA,0.159
23,AAACACGA,0.186
24,ATTCTCCG,0.0807
25,CAGCTTCA,-0.117

# Part of the list above, reformatted.
row	Sequence	PBM E-score
2	TAAGATGA	0.146
7	ATTCTTAC	0.185

# Remaining list, next part

row,Sequence,PBM E-score
1,TCAGCGAA,-0.0747
2,ACTCGAAT,-0.00978
3,CGTAGCGA,-0.0428
4,CTAACGCA,0.0376
5,GAGTCCAC,-0.189
6,ATTGCGGA,0.0449
7,CCGCAAGG,-0.00931
8,AGTCTGAC,-0.126
9,GATGGCAC,-0.162
10,AAAACTGA,0.0883
11,ATCCTTCG,-0.0718
12,CACGATTA,0.166
13,CGCGACCA,0.0731
14,GGTGGGTA,-0.0755
15,CTAATCGC,0.0898
16,CGAGAAAA,-0.0207
17,CACAAAAG,0.0916
18,CAGGGCTC,-0.322
19,CAGCCACC,-0.241
20,GTGAGGTA,0.0278
21,CTCAGACC,-0.0277
22,AGTAATAT,0.295
23,ATTTAATA,0.302
24,AAATGGAA,0.0788
25,GCGAGGCA,0.129

row,Sequence,PBM E-score
1,TATGAACA,0.154
2,AAGACGCT,-0.134
3,TTATCAAA,0.283
4,AAGAAGCA,0.119
5,GCGCTACC,-0.207
6,CCTCTGCA,-0.156
7,ACTAGCCG,-0.105
8,AGGCGGTG,-0.124
9,CAGCCCTC,-0.251
10,TCATGCCA,0.107
11,CTATGGCA,-0.0295
12,TCGTAAAA,0.186
13,CGCTGAGC,-0.0626
14,CCTACGAC,-0.00598
15,ACACGGCC,-0.118
16,CCAACCAA,-0.105
17,CAAAAGTA,0.124
18,AAGTCTCG,-0.256
19,CCGGAGGA,-0.32
20,ATGGGCTA,0.0365
21,ACTAACTA,0.0625
22,ACCGTAAG,0.134
23,CCGCGGGA,0.0728
24,GACCGAAA,0.0716
25,AGTTGGGC,0.0554

row,Sequence,PBM E-score
1,GGTTTTTA,0.0665
2,ATGGCACA,0.0343
3,CCGTTGAG,-0.143
4,CTCTCCAA,-0.0585
5,TCTTTTAA,0.0931
6,GCTTATGA,0.00919
7,GGCCATGA,-0.0375
8,GTTGTACA,0.148
9,GCCGTTGA,-0.014
10,AACATTGG,-0.0847
11,GCTCGAGA,-0.133
12,ACGACGCT,-0.137
13,ACAATAAA,0.106
14,CCCGTTAA,-0.148
15,ATAGCTAC,0.0338
16,CGACGTCC,-0.0908
17,CAGGGTTA,-0.103
18,ACTGTCAC,-0.0116
19,AGACATCA,-0.00878
20,AGGTGTTA,0.0571
21,CGGGGATA,-0.0572
22,CCACATCG,-0.0241
23,AAGTTGTA,0.196
24,TCTCTGCA,-0.152
25,TCTGAAGA,-0.167

row,Sequence,PBM E-score
1,CGATTATC,0.0664
2,AAACAACA,0.222
3,ATAATTTG,0.294
4,ACGCCACC,-0.186
5,GAGAACGA,0.00944
6,CGGGGTCC,-0.179
7,GCTCGATA,-0.0478
8,AGATCTCA,-0.0611
9,CGCATCCA,-0.0319
10,GTAGTGAC,0.0382
11,GGCTGTAA,-0.131
12,AGGCATTA,-0.117
13,CATCGACG,-0.111
14,AAGGGTCG,-0.14
15,AAGGCTTA,0.0457
16,GTAGTATA,0.233
17,AAATGGCA,0.0241
18,CAAAGGGC,-0.168
19,ATGGGACG,-0.199
20,CATGCTCG,-0.0852
21,AAGGCCGT,-0.104
22,CCGCAGCA,-0.0274
23,ATTACCTG,0.142
24,CTTTTAAA,0.131
25,ACGCTTGA,-0.0386

# Looked up above.
# CTCTCCAA – PBM E-score: -0.0585
# ATTTTGTA – PBM E-score: 0.218
# ACACGGCC – PBM E-score: -0.118

# The listing continues:

row,Sequence,PBM E-score
1,AGGCGCCG,-0.0458
2,AGTGTTAC,0.154
3,ACCGCATG,-0.0848
4,CGAAGGAA,0.0662
5,AGGCTCGC,-0.224
6,AACGTAAT,0.353
7,ATCGGAGC,-0.157
8,ATAAGGGA,0.114
9,ATGTTAAT,0.18
10,GAGGGACA,0.00636
11,AGAGTACG,-0.12
12,TCCGTTCA,-0.114
13,ATTCTAAA,0.0761
14,CCATTGAC,-0.0622
15,AGATTAAA,0.197
16,CCAGCCGC,-0.119
17,CCCAGACA,-0.175
18,CCACGAGA,-0.142
19,AGTCCTCC,-0.277
20,GAGGACCA,-0.051
21,TATTTGGA,-0.0865
22,GGCTATGA,-0.0379
23,CATAGGAA,-0.0287
24,GCACTGAC,0.0258
25,ACACAAAC,0.0974

# Nothing new here: entries from further up.
row,Sequence,PBM E-score
24,GACCGAAA,0.0716
25,AGTTGGGC,0.0554
1,GGTTTTTA,0.0665
2,ATGGCACA,0.0343
3,CCGTTGAG,-0.143
4,CTCTCCAA,-0.0585

# Additional records

row,Sequence,PBM E-score
1,GCCCTGGA,-0.279
2,CCCGATGC,-0.195
3,AGAACCCA,-0.0409
4,ACACCAGT,-0.139
5,CTCCCTCA,-0.122
6,AACCCTTC,0.0674
7,ATCAATAG,0.0702
8,AATTCGTC,0.185
9,CTAGAGTA,-0.0831
10,ACTATCCA,0.0137
11,AAATGGGG,-0.171
12,CCACGTTA,0.169
13,ATAGGACA,-0.0795
14,CGCGCAAC,-0.0558
15,CGGCGGAA,-0.0846
16,AATCTAAT,0.118
17,GTGTGTTA,0.259
18,ATCCGTGC,0.145
19,ATGGACCA,0.0714
20,GCCGTGCC,-0.168
21,TCAGTACA,0.136
22,AATACCGT,0.143
